From publication PMC5511174
No constants are given. Whether binding was seen depends on the method and setting. Binding seen in cells or lysates may run through a third protein. Some results given as binding are weak or reduced against the parent protein; the word gives no strength.

Amino acid sequences for entries named in this document (tags omitted).
UniProt Q5VZM2: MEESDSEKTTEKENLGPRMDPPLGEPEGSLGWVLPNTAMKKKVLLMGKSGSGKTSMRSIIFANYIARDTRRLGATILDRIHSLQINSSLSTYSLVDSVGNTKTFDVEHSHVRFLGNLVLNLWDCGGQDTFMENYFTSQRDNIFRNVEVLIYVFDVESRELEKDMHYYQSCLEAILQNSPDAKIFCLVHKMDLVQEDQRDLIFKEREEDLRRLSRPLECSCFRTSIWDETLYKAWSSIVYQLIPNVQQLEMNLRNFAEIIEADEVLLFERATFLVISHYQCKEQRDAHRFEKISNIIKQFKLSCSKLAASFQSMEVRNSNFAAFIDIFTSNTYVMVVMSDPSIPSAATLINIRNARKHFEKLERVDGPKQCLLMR
UniProt P04610: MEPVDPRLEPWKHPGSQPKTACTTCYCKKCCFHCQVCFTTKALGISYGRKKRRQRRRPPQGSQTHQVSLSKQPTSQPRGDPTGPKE
UniProt P12504: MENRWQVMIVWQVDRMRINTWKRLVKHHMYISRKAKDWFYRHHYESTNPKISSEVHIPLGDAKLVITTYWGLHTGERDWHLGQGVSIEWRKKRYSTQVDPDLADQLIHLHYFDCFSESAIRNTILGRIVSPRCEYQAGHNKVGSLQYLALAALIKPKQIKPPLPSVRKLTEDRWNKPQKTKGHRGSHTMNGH

Columns and labels:
[1] = target: RagA (human (endogenous in HeLa)) (UniProt Q7L523); assay: co-IP; endogenous RagA or RagB precipitated with anti-RagA or anti-RagB on Dynabeads Protein A from 500 ug lysate of HeLa cells transfected with pNL4-3 (also pNLXX, pNLXX + pSVGag, pNLVif-); NP-40 lysis buffer (50 mM Tris HCl pH 8.0, 150 mM NaCl, 0.5 mM EDTA, 0.5% NP-40), overnight at 4 °C; Western blot for viral proteins
[2] = target: RagB (human (endogenous in HeLa)) (UniProt Q5VZM2); assay: as above

Substance | binding [1] | binding [2]
HIV-1 Nef (from UniProt P03406 1-206) | no binding | –
HIV-1 Tat (from UniProt P04610 1-86) | no binding | –
HIV-1 Vif (from UniProt P12504 1-192) | – | binds
